Results deposited as PubChem BioAssay AID743454 (Peter MacCallum Cancer Centre, 2014)

- Aim: 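Knock-downs lowering viability or raising caspase 3/7 activity in vorinostat-treated resistant cells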 (primary screen)
- System: human HCT116-VR colon cancer cells, selected for vorinostat resistance
- Reagents: siRNA pool against human genes, 40 nM siRNA pool
- Timing: vorinostat for 24 h, read-out about 72 h after transfection
- Treatment: vorinostat at 2.5 µM final
- Read-out: 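Two measures, CellTiter-Fluor viability and luminescent caspase 3/7 activity, each as fold change against same-plate mock wells, mean of duplicates, then screen-wide robust z-score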
- Direction: viability robust z-score: higher = more viable cells than screen typical; caspase robust z-score: higher = more caspase 3/7 activity than screen typical
- Call rule: 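a knock-down is a hit when classed RV1 or RV2 for lowered viability, or CA1 or CA2 for caspase activation; those lethal without drug were dropped; hits were retested singly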
The deposit covers about 18,000 reagents; this is an unselected part. Over the whole deposit, 450 (2.5%) are marked active. 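Single biological run; no consistent viability z cut-off exists, so the class columns, not z-scores, define the calls.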 Unmarked entries are inactive.

MYOM2 scored viability hit class no change; caspase hit class no change; viability robust z-score 0.86; caspase robust z-score 0.08.
RAB35 gave viability hit class no change; caspase hit class no change; viability robust z-score 1; caspase robust z-score 1.96.
With knock-down of KLK6, the record shows viability hit class no change; caspase hit class no change; viability robust z-score -1.02; caspase robust z-score 3.76.
With knock-down of CLHC1, the screen gave viability hit class no change; caspase hit class no change; viability robust z-score -1.67; caspase robust z-score -0.97.
Against ASB16 the deposit lists viability hit class no change; caspase hit class no change; viability robust z-score -1.52; caspase robust z-score 2.52.
TMEM38B showed viability hit class no change; caspase hit class no change; viability robust z-score 0.22; caspase robust z-score -0.88.
Against TBC1D22A, the values are viability hit class no change; caspase hit class no change; viability robust z-score 1.6; caspase robust z-score -0.16.
Silencing of COX4I1 resulted in: viability hit class no change; caspase hit class no change; viability robust z-score 0.7; caspase robust z-score -0.64.
SLC16A9 scored viability hit class no change; caspase hit class no change; viability robust z-score -0.63; caspase robust z-score -0.07.
MINAR1 scored viability hit class no change; caspase hit class no change; viability robust z-score -0.82; caspase robust z-score 0.27.
After knock-down of ENTPD7 the results were viability hit class no change; caspase hit class no change; viability robust z-score 0.36; caspase robust z-score -0.23.
Knock-down of ZNF813 gave: viability hit class no change; caspase hit class no change; viability robust z-score 0.24; caspase robust z-score 0.76.
